Source: the supplement of paper PMC6078165
The reference is the same well before dosing, and untreated signal decays as well.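 The tumor cells are basal-like or mesenchymal-like triple-negative breast cancer lines cultured without fibroblasts. Reduced red signal indicates lost mitochondrial integrity, serving as a proxy for apoptotic death.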

How the values were obtained:
Assay in all cases: relative JC-1 red fluorescence (viability) vs pre-drug, monoculture (fraction); higher = more viable cancer cells
Settings in all cases: coculture fibroblast: none (monoculture)
[1] = test system: BT20
Description: (§1)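 JC-1 labelled TNBC cells grown in monoculture (density kept equal with unlabelled cancer cells) in 384-well plates in FluoroBrite medium, treated with one of 42 anticancer drugs at 0.1, 1, 10 or 100 uM. JC-1 red fluorescence (mitochondrial integrity, surrogate of apoptotic death) was read by plate reader every 8 h for 72 h. Values are normalised to each well's pre-drug value, with background from alamethicin. The stock of one drug was tenfold lower, so its dose labels may be too high. Monoculture values are repeated alongside each fibroblast plate and are averaged here.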

[2] = test system: Hs578T
Description: as §1

[3] = test system: MDAMB231
Description: as §1

[4] = test system: MDAMB468
Description: as §1

CN(Cc1cnc2nc(N)nc(N)c2n1)c1ccc(C(=O)N[C@@H](CCC(=O)O)C(=O)O)cc1 [Methotrexate]
relative JC-1 red fluorescence
Settings | 8 h | 16 h | 24 h | 32 h | 40 h | 48 h | 56 h | 64 h | 72 h
[1], 0.1 µM | 0.9342 | 0.886 | 0.80139 | 0.728 | 0.692 | 0.667 | 0.647 | 0.622 | 0.6
[1], 1 µM | 0.9409 | 0.8873 | 0.819 | 0.7449 | 0.707 | 0.695 | 0.663 | 0.657 | 0.652
[1], 10 µM | 0.93701 | 0.8796 | 0.822 | 0.756 | 0.732 | 0.714 | 0.696 | 0.679 | 0.67
[1], 100 µM | 0.913 | 0.818 | 0.786 | 0.73 | 0.702 | 0.688 | 0.662 | 0.651 | 0.643
[2], 0.1 µM | 0.8554 | 0.759 | 0.659 | 0.5945 | 0.551 | 0.541 | 0.523 | 0.522 | 0.52
[2], 1 µM | 0.903 | 0.807 | 0.754 | 0.69 | 0.6584 | 0.636 | 0.616 | 0.62 | 0.61
[2], 10 µM | 0.835 | 0.746 | 0.651 | 0.614 | 0.559 | 0.536 | 0.513 | 0.51 | 0.498
[2], 100 µM | 0.846 | 0.736 | 0.705 | 0.658 | 0.625 | 0.621 | 0.602 | 0.603 | 0.598
[3], 0.1 µM | 0.7636 | 0.757 | 0.6943 | 0.68 | 0.626 | 0.632 | 0.592 | 0.615 | 0.6
[3], 1 µM | 0.74483 | 0.707 | 0.647 | 0.567 | 0.53 | 0.522 | 0.495 | 0.511 | 0.511
[3], 10 µM | 0.814 | 0.742 | 0.789 | 0.702 | 0.659 | 0.638 | 0.61 | 0.646 | 0.63
[3], 100 µM | 0.725 | 0.671 | 0.648 | 0.593 | 0.548 | 0.54 | 0.505 | 0.519 | 0.51
[4], 0.1 µM | 0.907 | 0.858 | 0.804 | 0.697 | 0.6455 | 0.6175 | 0.5704 | 0.5349 | 0.5081
[4], 1 µM | 0.892 | 0.83 | 0.725 | 0.672 | 0.619 | 0.594 | 0.561 | 0.531 | 0.519
[4], 10 µM | 0.936 | 0.879 | 0.825 | 0.75 | 0.715 | 0.692 | 0.666 | 0.649 | 0.639
[4], 100 µM | 0.918 | 0.8381 | 0.808 | 0.737 | 0.707 | 0.7 | 0.67 | 0.655 | 0.652

O=C(O)CCCc1ccc(N(CCCl)CCCl)cc1 [Chlorambucil]
relative JC-1 red fluorescence
Settings | 8 h | 16 h | 24 h | 32 h | 40 h | 48 h | 56 h | 64 h | 72 h
[1], 0.1 µM | 0.914 | 0.823 | 0.8 | 0.744 | 0.724 | 0.733 | 0.719 | 0.728 | 0.739
[1], 1 µM | 0.9447 | 0.8692 | 0.788 | 0.7065 | 0.667 | 0.637 | 0.603 | 0.585 | 0.567
[1], 10 µM | 0.9535 | 0.817 | 0.746 | 0.674 | 0.63 | 0.602 | 0.573 | 0.558 | 0.536
[1], 100 µM | 0.941 | 0.865 | 0.815 | 0.743 | 0.696 | 0.67 | 0.6338 | 0.622 | 0.617
[2], 0.1 µM | 0.817 | 0.711 | 0.633 | 0.549 | 0.49 | 0.463 | 0.44 | 0.437 | 0.427
[2], 1 µM | 0.8511 | 0.773 | 0.689 | 0.6243 | 0.582 | 0.559 | 0.526 | 0.515 | 0.511
[2], 10 µM | 0.8762 | 0.71757 | 0.734 | 0.661 | 0.627 | 0.623 | 0.606 | 0.617 | 0.621
[2], 100 µM | 0.83 | 0.7128 | 0.6008 | 0.524 | 0.462 | 0.4226 | 0.379 | 0.3635 | 0.3396
[3], 0.1 µM | 0.761 | 0.707 | 0.906 | 0.755 | 0.751 | 0.803 | 0.801 | 0.87 | 0.805
[3], 1 µM | 0.7287 | 0.709 | 0.59179 | 0.579 | 0.526 | 0.506 | 0.479 | 0.4743 | 0.477
[3], 10 µM | 0.765 | 0.7002 | 0.771 | 0.689 | 0.656 | 0.666 | 0.647 | 0.69 | 0.691
[3], 100 µM | 0.728 | 0.685 | 0.577 | 0.568 | 0.495 | 0.476 | 0.434 | 0.442 | 0.425
[4], 0.1 µM | 0.8178 | 0.8007 | 0.805 | 0.782 | 0.771 | 0.797 | 0.794 | 0.806 | 0.821
[4], 1 µM | 0.883 | 0.81 | 0.732 | 0.667 | 0.632 | 0.608 | 0.58 | 0.55364 | 0.5472
[4], 10 µM | 0.831 | 0.757 | 0.709 | 0.642 | 0.594 | 0.574 | 0.548 | 0.526 | 0.509
[4], 100 µM | 0.8701 | 0.792 | 0.745 | 0.691 | 0.632 | 0.6029 | 0.5645 | 0.513 | 0.49
